The text below walks through data of US20050003401, “Pfu replication accessory factors and methods of use” (Stratagene, published 2005).

In this data set the test system is RFC complex (P55/P38), native immunoaffinity purified (Pyrococcus furiosus). Put plainly: activity assay. To be noted: ATPase stimulated by primed M13 DNA; enhances primer extension by Pfu + PCNA; purified native protein; folded or branched DNA.

For at least one entry, the source does not settle the construct or the ends of the probe.

For “GGTTTTCCCAGTCACGACGTTGTAAAACGACGGCCAGTGC [40-mer primer annealed to single-stranded M13mp18]”, the “activity on this sequence” value is on record as “active”.
